Screen size: about 300,000 compounds; about 3,700 (1.2%) were called active. The inconclusive results got no clear call from the source; some entries with a clear call stand among them for comparison. Calls follow the shape of the full dose curve; tested in HEK293 cells. Potencies beside an inconclusive call are fits to weak or partial responses and may not hold up.
Assay: qHTS for Inhibitors of binding or entry into cells for Lassa Virus; also: nearly all actives have a fitted effect of over 50% in size
Conditions: Lassa virus pseudotype entry inhibition, cell reporter; activity change, negative = inhibition: at 37.9 µM (top of the series) unless noted
% is scaled to controls: 0 for no effect and ±100 for the full control effect; potency is read from the fitted curve at half-maximal effect.

Row | Structure (SMILES) | Potency | activity change, negative = inhibition
1 | Cc1cccc(CCn2c(=O)c3ccccc3n(CC(=O)Nc3ccccc3F)c2=O)c1 | inconclusive: 5.62 µM [inhibitor, single point] | –
2 | c1ccc2c(c1)oc1c(Nc3ccc4c(c3)OCCO4)ncnc12 | inconclusive: 13 µM [inhibitor, partial curve, poor fit] | –
3 | Cc1ccc(N(C(=O)Cc2c[nH]c3ccccc23)C(C(=O)NC2CCCCC2)c2ccco2)cc1 (stereo not given) | inconclusive: 20.6 µM [inhibitor, partial curve] | –
4 | COc1ccc(OC)c(C(=O)CSc2ncc3c(n2)-c2ccccc2N(Cc2ccccc2C)S3(=O)=O)c1 | – | inactive: 9.79% [at 46.1 µM]
5 | CCCCSc1nnc(CSc2nc3nc(C)cc(C)n3n2)o1 | inconclusive: 25.9 µM [activator, single point] | –
6 | Cc1ccn2c(=O)cc(CSc3nnc(C)s3)nc2c1 | inconclusive: 11.2 µM [activator, partial curve] | –
7 | CC(=O)Nc1ccc(/C=C2\CCc3ccccc3C2=O)cc1 | inconclusive: 25.1 µM [inhibitor, single point] | –
8 | CCOC(=O)c1ccc(N2C(=O)C(CC(=O)NC)N(CCc3ccc(OC)c(OC)c3)C2=S)cc1 (stereo not given) | – | inactive: -0.918% [at 46.1 µM]
9 | COc1ccc(NC(=O)CCC(=O)N(Cc2ccc(OC)c(OC)c2)c2nccs2)c(OC)c1 | inconclusive: 3.16 µM [inhibitor, single point] | –
10 | CCOc1ccc(-c2ccc(SC)nn2)cc1 | active: 2.82 µM | –
11 | Nc1cc2nn(-c3ccccc3)nc2cc1Cl | inconclusive: 7.94 µM [inhibitor, partial curve, poor fit] | –
12 | CCN(CC)c1ccc(C2C(C(=O)Nc3ccccc3C)=C(C)Nc3ncnn32)cc1 (stereo not given) | – | inactive: -8.17% [at 46.1 µM]
13 | c1ccc(Cn2c(SCCN3CCOCC3)nnc2-c2cccnc2)cc1 | inconclusive: 13 µM [inhibitor, partial curve, poor fit] | –
14 | Cc1c(C)n(CCc2ccccc2)c2ncnc(NN)c12 | – | inactive: -21.3% [at 46.1 µM]
15 | O=C(COC(=O)c1ccccc1O)NCCC1=CCCCC1 | – | inactive: 18.3%
16 | COC(=O)CCCCCn1c(-c2ccccc2)cn2c3c(=O)n(C)c(=O)n(C)c3nc12 | inconclusive: 1 µM [inhibitor, full curve, poor fit] | –
17 | O=C1CC(N(CCc2ccccc2)C(=S)Nc2ccccc2)C(=O)N1c1ccccc1 (stereo not given) | inconclusive: 35.5 µM [inhibitor, single point] | –
18 | CCCc1cc(-c2n[nH]c(C(=O)OCC)c2-c2cscn2)c(O)cc1O | inconclusive: 2.31 µM [activator, partial curve, poor fit] | –
19 | CCn1c(=O)c(C(=O)Nc2ccccc2S(N)(=O)=O)c(O)c2ccccc21 | inconclusive: 12.6 µM [activator, single point] | –
20 | COc1ccc(C(CCNCc2ccccc2)c2ccc(F)cc2)cc1 (stereo not given) | inconclusive: 35.5 µM [inhibitor, single point] | –
21 | O=[N+]([O-])c1cc2c(cc1CNCCc1ccc3c(c1)OCO3)OCO2 | inconclusive: 4.47 µM [activator, partial curve] | –
22 | Cc1onc(-c2ccccc2)c1C(=O)N/N=C/c1c[nH]c2ccccc12 | active: 10 µM | –

Row | Structure (SMILES) | Potency | activity change, negative = inhibition
23 | C=C1CCC[C@]2(C)C[C@H]3OC(=O)C(CNCCN(CC)CC)[C@H]3CC12 (stereo not given in full) | inconclusive: 25.1 µM [inhibitor, single point] | –
24 | CCSc1nnc(NC(=O)COc2ccccc2[N+](=O)[O-])s1 | – | inactive: 18.5% [at 46.1 µM]
25 | COc1cccc(C(=O)N2[C@H](COCc3ccccc3)C=CS2(=O)=O)c1 | inconclusive: 11.2 µM [inhibitor, single point] | –
26 | COC(=O)c1c(NC(=O)CSc2ncnc3ccccc23)sc(C)c1C | inconclusive: 15.8 µM [activator, partial curve, poor fit] | –
27 | CSCCC(NC(=O)c1ccco1)C(=O)Nc1ccc(C)cn1 (stereo not given) | inconclusive: 35.5 µM [activator, single point] | –
28 | CC(=O)c1cccc(NC(=O)[C@H]2O[C@@H]3OC(C)(C)O[C@@H]3[C@H]3OC(C)(C)O[C@H]32)c1 | inconclusive: 35.5 µM [activator, single point] | –
29 | Cc1ccc(S(=O)(=O)NNC(=O)c2ccccc2-n2cccc2)cc1 | inconclusive: 35.5 µM [activator, single point] | –
30 | C=CCn1c(SCCCC)nc(O)cc1=O | – | inactive: -5.48%
31 | COc1ccccc1Nc1c2c(nc3ccc(NC(=O)c4ccccc4F)cc13)CCCC2 | inconclusive: 11.2 µM [inhibitor, single point] | –
32 | CCOc1ccc(C(=O)Nc2ccc3c(c2)OCCO3)cc1 | inconclusive: 3.16 µM [inhibitor, single point] | –
33 | O=C(NC1CCN(Cc2ccccc2)CC1)c1ccccc1NS(=O)(=O)c1ccc(F)cc1 | – | inactive: -19.1%
34 | Cc1nn(Cc2ccc(Cl)cc2)c(C)c1NC(=O)CCCn1nc(C)c([N+](=O)[O-])c1C | inconclusive: 25.1 µM [inhibitor, single point] | –
35 | Cc1ccc2nc(-c3ccsc3)c(Nc3ccc(Cl)cc3)n2c1 | – | inactive: 13.4% [at 46.1 µM]
36 | N#C/C(=C\c1cc2c(cc1Br)OCO2)C(=O)NCC1CCCO1 (stereo not given) | inconclusive: 35.5 µM [activator, single point] | –
37 | CCCn1c(=O)c(C(=O)NCc2ccncc2)c(O)c2ccccc21 | – | inactive: -1.28%
38 | CCOc1ccc(C(=O)Cc2cc3cccc(OC)c3oc2=O)cc1 | – | inactive: 10.6% [at 46.1 µM]
39 | Cc1c(NC(=O)c2cccc(-c3cc4ccccc4oc3=O)c2)cccc1-c1nc2ncccc2o1 | inconclusive: 35.5 µM [inhibitor, partial curve, poor fit] | –
40 | CN1CCC(OC(=O)C2c3ccccc3Oc3ccccc32)CC1 | inconclusive: 35.5 µM [inhibitor, partial curve, poor fit] | –
41 | CC1CCN(c2ccc(-c3ccc(NC(=O)C(F)(F)F)cc3)nn2)CC1 | inconclusive: 4.47 µM [inhibitor, full curve, poor fit] | –
42 | CCOC(=O)c1c(C)n(COCCO)c2ccc(O)cc12 | inconclusive: 0.58 µM [inhibitor, full curve, poor fit] | –
43 | COc1ccc(-n2cc(CN(C)C3CCOCC3)c(-c3cccc(F)c3)n2)cc1 | inconclusive: 25.1 µM [inhibitor, single point] | –
44 | COc1ccc([N+](=O)[O-])cc1/C=N/NC(=O)CNC(=O)c1cccc(F)c1 | inconclusive: 2.06 µM [inhibitor, partial curve, poor fit] | –

Row | Structure (SMILES) | Potency | activity change, negative = inhibition
45 | NS(=O)(=O)c1ccc(NC(=O)COc2ccc(S(=O)(=O)NC3CCCCC3)cc2)cc1 | inconclusive: 35.5 µM [activator, single point] | –
46 | COc1ccc(C)cc1NCc1ccc([N+](=O)[O-])cc1 | inconclusive: 0.112 µM [inhibitor, full curve, poor fit] | –
47 | Cc1ccc2nc(N(CCCN(C)C)C(=O)c3ccc4ncsc4c3)sc2c1 | inconclusive: 3.16 µM [activator, single point] | –
48 | O=C(COC(=O)/C=C/c1ccc(C(F)(F)F)cc1)NCCC1=CCCCC1 | inconclusive: 6.31 µM [activator, single point] | –
49 | CCOC(=O)C1=C(C)N=C2SCCC(=O)N2C1c1ccc(OCc2ccccc2)c(OC)c1 (stereo not given) | – | inactive: -24.1% [at 46.1 µM]
50 | Cc1cc(NC(=O)c2cc(Cl)ccc2Cl)ccc1-c1cc2ccccc2oc1=O | inconclusive: 6.31 µM [inhibitor, full curve] | –
51 | O=C(c1ccccc1)c1cccc2ccccc12 | – | inactive: -14.7% [at 46.1 µM]
52 | Cc1ccc(NC(=O)CSC2=NCCN2)cc1 | inconclusive: 8.91 µM [inhibitor, partial curve, poor fit] | –
53 | CC(=O)c1ccccc1OCCOCCOc1ccccc1C(C)=O | inconclusive: 1.26 µM [inhibitor, single point] | –
54 | COc1ccccc1NC(=O)c1ccc2c(c1)OCO2 | inconclusive: 3.55 µM [inhibitor, single point] | –
55 | CC(=O)C1(C)CCC2C3C=C(C)C4=CC(=O)CCC4(C)C3CCC21C (stereo not given) | inconclusive: 35.5 µM [inhibitor, single point] | –
56 | CCOc1ccc(/C=N/NC(=O)Nc2ccccc2)cc1 | inconclusive: 22.4 µM [inhibitor, single point] | –
57 | O=C(CCc1nnc(-c2ccc(-c3ccccc3)cc2)o1)NCCc1ccccn1 | inconclusive: 0.562 µM [inhibitor, full curve, poor fit] | –
58 | Cc1ccc(CNS(=O)(=O)c2ccc(CN3C(=O)c4cccnc4C3=O)cc2)o1 | inconclusive: 35.5 µM [activator, single point] | –
59 | N=c1sccn1CC(=O)Nc1ccc(SC(F)F)cc1 | inconclusive: 10 µM [activator, partial curve] | –
60 | O=C(Cc1cccs1)Nc1ccc(-c2nc3ccccc3[nH]2)cc1 | inconclusive: 12.6 µM [inhibitor, single point] | –
61 | CCn1c(=O)n(CC)c2cc(N3CCCC3)c(NC(=O)c3ccccc3)cc21 | inconclusive: 1.58 µM [inhibitor, full curve, poor fit] | –
62 | OC(CNCc1ccccc1)Cn1ccc2ccccc21 (stereo not given) | inconclusive: 32.6 µM [inhibitor, single point] | –
63 | Cc1cccc(N(CC(=O)NC2CCCCC2)C(=O)c2csnn2)c1 | inconclusive: 14.1 µM [inhibitor, single point] | –
64 | CCOc1ccc(NC(=O)C(C)N2C(=O)c3ccccc3C2=O)cc1 (stereo not given) | inconclusive: 0.447 µM [inhibitor, full curve] | –
65 | CCn1c2c(c(=O)n3ncc(C(=O)N4CCN(c5ccc(C(C)=O)cc5)CC4)c13)CN(Cc1ccc(OC)cc1)CC2 | active: 10 µM | –

4 entries from above, as labelled records:
Cc1ccc(NC(=O)CSC2=NCCN2)cc1
  Potency: inconclusive: 8.91 µM [inhibitor, partial curve, poor fit]
CC(=O)c1ccccc1OCCOCCOc1ccccc1C(C)=O
  Potency: inconclusive: 1.26 µM [inhibitor, single point]
COc1ccccc1NC(=O)c1ccc2c(c1)OCO2
  Potency: inconclusive: 3.55 µM [inhibitor, single point]
CC(=O)C1(C)CCC2C3C=C(C)C4=CC(=O)CCC4(C)C3CCC21C (stereo not given)
  Potency: inconclusive: 35.5 µM [inhibitor, single point]

Source: PubChem BioAssay AID540256 (National Center for Advancing Translational Sciences (NCATS), 2011)
